# Results from the supplement of paper PMC8256030.
# Several values for one entry are separate records, joined by “and”; a condition that tells them apart may be missing. Equal entries are not always repeated. The list shows a part of the results. Single values are uncertain here, since repeats match poorly.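 HEK293T cells were given each compound shortly before transfection with a reporter in which red mCherry is followed by the SARS-CoV-2 frameshift element and then GFP in the −1 frame, so GFP appears only after frameshifting.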
# What was measured:
# [1] = system: SARS-CoV-2 -1 PRF reporter mCherry-FSE-GFP(-1); test: mCherry (red) intensity as percent of control; higher = higher upstream reporter expression; settings: 10 µM; 24 h; HEK293T
# [2] = system: SARS-CoV-2 -1 PRF reporter mCherry-FSE-GFP(-1); test: percent effect, decrease of GFP/mCherry ratio (-1 PRF reporter) relative to controls; higher = stronger frameshift inhibition; settings: 10 µM; 24 h; HEK293T
Structure (SMILES),mCherry [1],percent effect [2]
Cc1cc(C#N)cc(C)c1Oc1nc(Nc2ccc(C#N)cc2)nc(N)c1Br [etravirine],26.5%,-13.1%
NCc1c[nH]c(=S)n1[C@H]1CCc2c(F)cc(F)cc2C1 [nepicastat],104%,-17.3%
CCCC(=O)N1CCCN(c2nc(N)c3cc(OC)c(OC)cc3n2)CC1 [bunazosin],104%,-21.8%
C[N+](C)([O-])CCC=C1c2ccccc2CCc2ccccc21 [amitriptylinoxide],80.9%,-2.66%
CC(=O)NCCCCCC(=O)O [acexamic acid],100%,2.05%
CN(C)CCc1c[nH]c2ccc(Cn3cncn3)cc12,101%,-4.81%
CNCCc1ccccn1 [betahistine],113%,-6.74%
CN(C)CCCN1c2ccccc2Sc2ccccc21 [promazine],114%,-7.95%
CSc1nc2cc(Cl)c(Oc3cccc(Cl)c3Cl)cc2[nH]1 [triclabendazole],84.6%,1.24%
COC(=O)CCNC(=O)[C@@H]1CSC(C)N1 (stereo not given in full) [alonacic],99.4%,-5.37%
CN[C@@H]1[C@@H](O)[C@@H](O[C@@H]2[C@@H](O)[C@H](O[C@H]3OC(CN)=CC[C@H]3N)[C@@H](N)C[C@H]2N)OC[C@]1(C)O,103%,-11.7%
CCN1CCN(C(=O)N[C@@H](C(=O)N[C@@H]2C(=O)N3C(C(=O)O)=C(CSc4nnnn4C)CS[C@H]23)c2ccc(O)cc2)C(=O)C1=O [Cefoperazone acid],58.1%,-3.65%
N=C(N)NCc1ccc2c(c1)OCCO2 [guabenxan],89.7%,0.103%
CO/N=C1\C[C@]2(C[C@@H]3C[C@@H](C/C=C(\C)C[C@@H](C)/C=C/C=C4\CO[C@@H]5[C@H](O)C(C)=C[C@@H](C(=O)O3)[C@]45O)O2)O[C@H](/C(C)=C/C(C)C)[C@H]1C,87.8%,4.7%
CCN(CC)CC(=O)Nc1c(C)cccc1C [lidocaine],111%,-6.97%
Nc1nc2c(c(=O)[nH]1)C[C@@H](CCc1ccc(C(=O)N[C@@H](CCC(=O)O)C(=O)O)cc1)CN2 [lometrexol],63.3%,-10.7%
Nc1nc(/C(=C/CC(=O)O)C(=O)N[C@@H]2C(=O)N3C(C(=O)O)=CCS[C@H]23)cs1 [Cedax],104%,-3.74%
C[C@]12CC[C@@H]3c4ccc(OS(=O)(=O)O)cc4CC[C@H]3[C@@H]1CCC2=O,108%,-0.197%

# Reprinted at random: 2 records from the list, in no set order.
Structure (SMILES),mCherry [1],percent effect [2]
CN(C)CCc1c[nH]c2ccc(Cn3cncn3)cc12,101%,-4.81%
Nc1nc(/C(=C/CC(=O)O)C(=O)N[C@@H]2C(=O)N3C(C(=O)O)=CCS[C@H]23)cs1 [Cedax],104%,-3.74%

# More results

Structure (SMILES),mCherry [1],percent effect [2]
CC1(C)O[C@@H]2[C@@H](CO[C@@]3(COS(N)(=O)=O)OC(C)(C)O[C@@H]23)O1 [topiramate],87.2%,-1.89%
CCCCN(CCCC)CCCOC(=O)c1ccc(N)cc1 [butacaine],134%,1.65%
CCOC(=O)/C=C/[C@H](C[C@@H]1CCNC1=O)NC(=O)[C@@H](CC(=O)[C@@H](NC(=O)c1cc(C)on1)C(C)C)Cc1ccc(F)cc1 [rupintrivir],89.9%,-5.36%
O=C(O)/C=C/c1ccc(Cn2ccnc2)cc1 [Ozagrel],72.7%,-3.09%
CC(C(=O)O)c1ccc(-c2cn3ccccc3n2)cc1 (stereo not given) [miroprofen],78%,-3.06%
C[C@H]1C[C@H]2[C@@H]3C[C@H](F)C4=CC(=O)C=C[C@]4(C)[C@@]3(F)[C@@H](O)C[C@]2(C)[C@@]1(O)C(=O)CO [diflorasone],99.9%,-0.736%
CCn1cc(C(=O)O)c(=O)c2cnc(N3CCNCC3)nc21 [pipemidic acid],107%,-4.13%
O=C1NCCNC1c1cccs1 (stereo not given) [tenilsetam],104%,-3.56%
CC[C@H](NC(=O)c1c(O)c(-c2ccccc2)nc2ccccc12)c1ccccc1 [talnetant],87.2%,-9.59%
C#Cc1c[nH]c(=O)[nH]c1=O [eniluracil],73.1%,1.37%
C[C@H](NC(=O)c1cnc2n1[C@](C)(Cc1ccc(C#N)cc1)C(=O)N2c1cc(Cl)c(F)c(Cl)c1)C(=O)NC1(c2ccccn2)CC1,43.4%,1.21%
NC(=O)N1c2ccccc2CC(=O)c2ccccc21 [oxcarbazepine],79.4% and 67.3%,-1.22% and -5.99%
N=C(N)NCCN1CCCCCCC1,112%,-5.56%
CCOC(=O)C1=C[C@@H](OC(CC)CC)[C@H](NC(C)=O)[C@@H](N)C1 [oseltamivir],72.1%,-4.82%
COCCCOc1cc(C[C@@H](C[C@H](N)[C@@H](O)C[C@H](C(=O)NCC(C)(C)C(N)=O)C(C)C)C(C)C)ccc1OC [aliskiren],80.7%,-4.42%
CCn1c(=O)c2c(nc(/C=C/c3ccc(OC)c(OC)c3)n2C)n(CC)c1=O [istradefylline],101%,-2.52%
COc1ccc2c(c1)c(CC(=O)NO)c(C)n2C(=O)c1ccc(Cl)cc1 [oxametacin],53%,-4.72%
